Values quoted from earlier work as cited in EP1857450A1, “Novel enantiomeric compounds for treatment of cardiac arrhythmias and methods of use” (Aryx Therapeutics, priority 1999, dated 2001).

Details: share of the time pulmonary toxicity is fatal; cited from earlier work

Question: Which pulmonary toxicity fatal does the source give for CCCCc1oc2ccccc2c1C(=O)c1cc(I)c(OCCN(CC)CC)c(I)c1 [amiodarone] here?
Answer: The pulmonary toxicity fatal was 10%.
